# Reference: the supplement of paper PMC8728848
# The other results are listed elsewhere or left out.
# Columns and labels:
# Assay in all cases: glycan array binding signal (z-score within array); higher = stronger binding
# Settings in all cases: glycan notation: IUPAC condensed, linker removed
# [1] = target: Fuc(a1-3)[Gal3S(b1-4)]GlcNAc
# Procedure, shortened: (§1)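 Glycan array data came from 3228 arrays in the Consortium for Functional Glycomics database, and only arrays with an available protein sequence were kept. Glycan names were put into IUPAC-condensed notation, and columns mapping to the same glycan were averaged. The binding signal is a within-array Z-score, averaged across arrays of one protein sequence run at different concentrations or buffers and across linkers. A negative Z-score can be read as non-binding.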
# [2] = target: Fuc(a1-3)[Gal3S(b1-4)]GlcNAc6S
# Procedure, shortened: as §1
# [3] = target: Fuc(a1-3)[GalNAc(b1-4)]GlcNAc
# Procedure, shortened: as §1
# Fuc(a1-4)GlcNAc = target: Fuc(a1-4)GlcNAc
# Procedure, shortened: as §1
# Fuc(b1-3)GlcNAc = target: Fuc(b1-3)GlcNAc
# Procedure, shortened: as §1
# Gal(a1-2)Gal = target: Gal(a1-2)Gal
# Procedure, shortened: as §1
# Gal(a1-3)Gal = target: Gal(a1-3)Gal
# Procedure, shortened: as §1
# Gal(a1-3)Gal(b1-3)GlcNAc = target: Gal(a1-3)Gal(b1-3)GlcNAc
# Procedure, shortened: as §1
# [4] = target: Gal(a1-3)Gal(b1-3)GlcNAc(b1-2)Man(a1-3)[Gal(a1-3)Gal(b1-3)GlcNAc(b1-2)Man(a1-6)]Man(b1-4)GlcNAc(b1-4)GlcNAc
# Procedure, shortened: as §1
# [5] = target: Gal(a1-3)Gal(b1-3)[Fuc(a1-4)]GlcNAc(b1-2)Man(a1-3)[Gal(a1-3)Gal(b1-3)[Fuc(a1-4)]GlcNAc(b1-2)Man(a1-6)]Man(b1-4)GlcNAc(b1-4)GlcNAc
# Procedure, shortened: as §1
# Gal(a1-3)Gal(b1-4)Glc = target: Gal(a1-3)Gal(b1-4)Glc
# Procedure, shortened: as §1
# Gal(a1-3)Gal(b1-4)GlcNAc = target: Gal(a1-3)Gal(b1-4)GlcNAc
# Procedure, shortened: as §1
# [6] = target: Gal(a1-3)Gal(b1-4)GlcNAc(b1-3)GalNAc
# Procedure, shortened: as §1
# [7] = target: Gal(a1-3)Gal(b1-4)[Fuc(a1-3)]GlcNAc
# Procedure, shortened: as §1
# [8] = target: Gal(a1-3)Gal(b1-4)[Fuc(a1-3)]GlcNAc(b1-2)Man(a1-3)[Gal(a1-3)Gal(b1-4)[Fuc(a1-3)]GlcNAc(b1-2)Man(a1-6)]Man(b1-4)GlcNAc(b1-4)GlcNAc
# Procedure, shortened: as §1
# Gal(a1-3)GalNAc = target: Gal(a1-3)GalNAc
# Procedure, shortened: as §1
# [9] = target: Gal(a1-3)[Gal(a1-4)]Gal(b1-4)GlcNAc
# Procedure, shortened: as §1
# [10] = target: Gal(a1-4)Gal(b1-3)GlcNAc(b1-2)Man(a1-3)[Gal(a1-4)Gal(b1-3)GlcNAc(b1-2)Man(a1-6)]Man(b1-4)GlcNAc(b1-4)GlcNAc
# Procedure, shortened: as §1
# Gal(a1-4)Gal(b1-4)Glc = target: Gal(a1-4)Gal(b1-4)Glc
# Procedure, shortened: as §1
# Gal(a1-4)Gal(b1-4)GlcNAc = target: Gal(a1-4)Gal(b1-4)GlcNAc
# Procedure, shortened: as §1
# [11] = target: Gal(a1-4)Gal(b1-4)GlcNAc(b1-2)Man(a1-3)[Gal(a1-4)Gal(b1-4)GlcNAc(b1-2)Man(a1-6)]Man(b1-4)GlcNAc(b1-4)GlcNAc
# Procedure, shortened: as §1
# [12] = target: Gal(a1-4)Gal(b1-4)GlcNAc(b1-3)Gal(b1-4)Glc
# Procedure, shortened: as §1
# Gal(a1-4)GlcNAc = target: Gal(a1-4)GlcNAc
# Procedure, shortened: as §1
# Gal(a1-6)Glc = target: Gal(a1-6)Glc
# Procedure, shortened: as §1
# Gal(b1-2)Gal = target: Gal(b1-2)Gal
# Procedure, shortened: as §1
# Gal(b1-3)Gal = target: Gal(b1-3)Gal
# Procedure, shortened: as §1
# Gal(b1-3)Gal(b1-4)GlcNAc = target: Gal(b1-3)Gal(b1-4)GlcNAc
# Procedure, shortened: as §1
# [13] = target: Gal(b1-3)Gal(b1-4)GlcNAc(b1-2)Man(a1-3)[Gal(b1-3)Gal(b1-4)GlcNAc(b1-2)Man(a1-6)]Man(b1-4)GlcNAc(b1-4)GlcNAc
# Procedure, shortened: as §1
# Gal(b1-3)GalNAc = target: Gal(b1-3)GalNAc
# Procedure, shortened: as §1
# [14] = target: Gal(b1-3)GalNAc(a1-3)[Fuc(a1-2)]Gal(b1-4)Glc
# Procedure, shortened: as §1
# [15] = target: Gal(b1-3)GalNAc(a1-3)[Fuc(a1-2)]Gal(b1-4)GlcNAc
# Procedure, shortened: as §1
# [16] = target: Gal(b1-3)GalNAc(b1-3)Gal(a1-4)Gal(b1-4)Glc
# Procedure, shortened: as §1
# [17] = target: Gal(b1-3)GalNAc(b1-4)Gal(b1-4)Glc
# Procedure, shortened: as §1
# [18] = target: Gal(b1-3)GalNAc(b1-4)[Neu5Ac(a2-3)]Gal(b1-4)Glc
# Procedure, shortened: as §1
# Gal(b1-3)GlcNAc = target: Gal(b1-3)GlcNAc
# Procedure, shortened: as §1
# [19] = target: Gal(b1-3)GlcNAc(a1-6)Gal(b1-4)GlcNAc
# Procedure, shortened: as §1
# [20] = target: Gal(b1-3)GlcNAc(b1-2)Man(a1-3)[Gal(b1-3)GlcNAc(b1-2)Man(a1-6)]Man(b1-4)GlcNAc(b1-4)GlcNAc
# Procedure, shortened: as §1
# [21] = target: Gal(b1-3)GlcNAc(b1-2)Man(a1-3)[Gal(b1-3)GlcNAc(b1-2)Man(a1-6)]Man(b1-4)GlcNAc(b1-4)[Fuc(a1-6)]GlcNAc
# Procedure, shortened: as §1
# [22] = target: Gal(b1-3)GlcNAc(b1-3)Gal(b1-3)GlcNAc
# Procedure, shortened: as §1
# [23] = target: Gal(b1-3)GlcNAc(b1-3)Gal(b1-4)Glc
# Procedure, shortened: as §1
# [24] = target: Gal(b1-3)GlcNAc(b1-3)Gal(b1-4)GlcNAc
# Procedure, shortened: as §1
# [25] = target: Gal(b1-3)GlcNAc(b1-3)Gal(b1-4)GlcNAc(b1-6)[Gal(b1-3)GlcNAc(b1-3)]Gal(b1-4)Glc
# Procedure, shortened: as §1
# [26] = target: Gal(b1-3)GlcNAc(b1-3)Gal(b1-4)[Fuc(a1-3)]GlcNAc(b1-6)[Gal(b1-3)GlcNAc(b1-3)]Gal(b1-4)Glc
# Procedure, shortened: as §1
# [27] = target: Gal(b1-3)GlcNAc(b1-3)GalNAc
# Procedure, shortened: as §1
# [28] = target: Gal(b1-3)GlcNAc(b1-6)Gal(b1-4)GlcNAc
# Procedure, shortened: as §1
binder,measurement,setting,value
"CREG (Mus musculus), O88668 (protein) MAARAPELARSLLAALLAPALVALLVSPASGRGGRDHGDWDVDRRLPPLPPREDGPRVARFVTHVSDWGSLATISTIKEVRGWPFADIISISDGPPGEGTGEPYMYLSPLQQAVSDLQENPEATLTMSLAQTVYCRNHGFDPQSPLCVHIMMSGTVTKVNKTEEDYARDSLFVRHPEMKHWPSSHNWFFAKLKISRIWVLDYFGGPKVVTPEEYFNVTLQ",glycan array binding signal (z-score),[1],0.235
same,glycan array binding signal (z-score),[2],-0.061
same,glycan array binding signal (z-score),[3],-1.19
same,glycan array binding signal (z-score),Fuc(a1-4)GlcNAc,-0.873
same,glycan array binding signal (z-score),Fuc(b1-3)GlcNAc,-1.22
same,glycan array binding signal (z-score),Gal(a1-2)Gal,-0.293
same,glycan array binding signal (z-score),Gal(a1-3)Gal,-0.874
same,glycan array binding signal (z-score),Gal(a1-3)Gal(b1-3)GlcNAc,-0.114
same,glycan array binding signal (z-score),[4],3.49
same,glycan array binding signal (z-score),[5],0.976
same,glycan array binding signal (z-score),Gal(a1-3)Gal(b1-4)Glc,2.09
same,glycan array binding signal (z-score),Gal(a1-3)Gal(b1-4)GlcNAc,-1.02
same,glycan array binding signal (z-score),[6],-0.755
same,glycan array binding signal (z-score),[7],-0.438
same,glycan array binding signal (z-score),[8],-1.09
same,glycan array binding signal (z-score),Gal(a1-3)GalNAc,-0.285
same,glycan array binding signal (z-score),[9],-0.517
same,glycan array binding signal (z-score),[10],2.08
same,glycan array binding signal (z-score),Gal(a1-4)Gal(b1-4)Glc,-0.943
same,glycan array binding signal (z-score),Gal(a1-4)Gal(b1-4)GlcNAc,-0.069
same,glycan array binding signal (z-score),[11],-0.317
same,glycan array binding signal (z-score),[12],0.004
same,glycan array binding signal (z-score),Gal(a1-4)GlcNAc,-0.685
same,glycan array binding signal (z-score),Gal(a1-6)Glc,0.006
same,glycan array binding signal (z-score),Gal(b1-2)Gal,0.525
same,glycan array binding signal (z-score),Gal(b1-3)Gal,0.033
same,glycan array binding signal (z-score),Gal(b1-3)Gal(b1-4)GlcNAc,-1.32
same,glycan array binding signal (z-score),[13],0.416
same,glycan array binding signal (z-score),Gal(b1-3)GalNAc,-0.036
same,glycan array binding signal (z-score),[14],0.017
same,glycan array binding signal (z-score),[15],0.423
same,glycan array binding signal (z-score),[16],-0.348
same,glycan array binding signal (z-score),[17],0.579
same,glycan array binding signal (z-score),[18],-0.237
same,glycan array binding signal (z-score),Gal(b1-3)GlcNAc,0.335
same,glycan array binding signal (z-score),[19],-0.399
same,glycan array binding signal (z-score),[20],-0.621
same,glycan array binding signal (z-score),[21],-0.604
same,glycan array binding signal (z-score),[22],-0.128
same,glycan array binding signal (z-score),[23],0.108
same,glycan array binding signal (z-score),[24],-0.113
same,glycan array binding signal (z-score),[25],0.701
same,glycan array binding signal (z-score),[26],-0.04
same,glycan array binding signal (z-score),[27],0.964
same,glycan array binding signal (z-score),[28],0.63

# Pulled one by one from above, 3 records:
binder,measurement,setting,value
"CREG (Mus musculus), O88668 (protein) MAARAPELARSLLAALLAPALVALLVSPASGRGGRDHGDWDVDRRLPPLPPREDGPRVARFVTHVSDWGSLATISTIKEVRGWPFADIISISDGPPGEGTGEPYMYLSPLQQAVSDLQENPEATLTMSLAQTVYCRNHGFDPQSPLCVHIMMSGTVTKVNKTEEDYARDSLFVRHPEMKHWPSSHNWFFAKLKISRIWVLDYFGGPKVVTPEEYFNVTLQ",glycan array binding signal (z-score),[12],0.004
same,glycan array binding signal (z-score),Fuc(b1-3)GlcNAc,-1.22
same,glycan array binding signal (z-score),[25],0.701
